Source: PubChem BioAssay AID504795 (Drosophila RNAi Screening Center, 2011)
This is not the whole library: the list holds selected reagents. 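Every listed dsRNA shows some phenotype; how reagents were selected for listing is not stated.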 Reagents against one gene are numbered here. Names joined by + are all predicted targets of the reagent. No sequences are given here.

- Aim: 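Knock-downs causing abnormal branching, bundling, swelling or growth of cultured neurons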 (primary screen)
- System: primary Drosophila neurons and glia
- Knock-down reagent: long dsRNA against Drosophila genes, 250 ng dsRNA per well
- Timing: one week
- Measurement: 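Descriptive morphology terms assigned by visual inspection of live automated images of GFP-marked cells, taken one week after adding 250 ng dsRNA per well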

no.	predicted target	reagent	phenotype seen, replicate 1	phenotype seen, replicate 2
1	CG4957	1	beaded; swollen axons	
2	CG3071	1	axon bundles split apart	
3	l(2)27Cb (retired record)	1	abnormal cell clusters	
4	CHKov1	1	axon bundles split apart	
5	CG13088	1	axon bundles split apart	
6	CG34112	1	sheet-like cell extensions	
7	RpL10	1	reduced axon outgrowth	sheet-like cell extensions
8	CG10254	1	beaded; swollen axons	
9	Vsx1	1	too many neurite branches	
10	bon	1	sheet-like cell extensions	
11	Spt20	1	too many neurite branches	
12	CG1888	1	axon bundles split apart	
13	CG34242	1	weaker green signal	
14	Pxt	1	axon bundles split apart	
15	CG31482	1	reduced axon outgrowth	
16	CLS	1	too many neurite branches	
17	Lac	1	axon bundles split apart	
18	Pig1	1	reduced axon outgrowth	
19	B9d1	1	abnormal cell clusters	
20	CG42784	1	too many neurite branches	
21	CG4854	1	too many neurite branches	
22	RpS16	1	axon bundles split apart	
23	CG14907 + Mettl4	1	sheet-like cell extensions	
24	Cpsf100	1	beaded; swollen axons	
25	CG15153	1	too many neurite branches	
26	Polr1C	1	too many neurite branches	
27	CG6333	1	too many neurite branches	
28	CG6686	1	beaded; swollen axons	
29	S-Lap8	1	axon bundles split apart	
30	CG18675	1	beaded; swollen axons	
31	l(3)73Ah	1	axon bundles split apart	abnormal cell clusters
32	CG13675	1	too many neurite branches	
33	Elp6	1	beaded; swollen axons	
34	CG6409	1	too many neurite branches	
35	CG3517	1	abnormal cell clusters	
36	sli	1	too many neurite branches	
37	ClC-a	1	too many neurite branches	
38	CG44085	1	sheet-like cell extensions	
39	CG12507	1	beaded; swollen axons	
40	Cp18	1	too many neurite branches	
41	CG31549	1	axon bundles split apart	
42	Patsas	1	cell fragments present	
43	CG34396	1	fewer cells	
44	Lamp1	1	sheet-like cell extensions	

An excerpt from above, showing only “phenotype seen, replicate 1”.
CG4957 = beaded; swollen axons
CG3071 = axon bundles split apart
l(2)27Cb (retired record) = abnormal cell clusters
CHKov1 = axon bundles split apart
CG13088 = axon bundles split apart
CG34112 = sheet-like cell extensions
RpL10 = reduced axon outgrowth
CG10254 = beaded; swollen axons
Vsx1 = too many neurite branches
bon = sheet-like cell extensions
Spt20 = too many neurite branches
CG1888 = axon bundles split apart

Additional reagents follow.
no.	predicted target	reagent	phenotype seen, replicate 1	phenotype seen, replicate 2
45	ens	1	too many neurite branches	
46	stet	1	too many neurite branches	
47	RpL36	1	weaker green signal	
48	eIF2beta	1	beaded; swollen axons	
49	CG7215 + Prx5	1	too many neurite branches	
50	Eip74EF	1	axon bundles split apart	
51	CG8300	1	axon bundles split apart	
52	bma	1	abnormal cell clusters	
53	bma	2	axon bundles split apart	
54	Alg1	1	too many neurite branches	
55	Nprl2	1	too many neurite branches	
56	Syp	1	too many neurite branches	
57	Trf2	1	too many neurite branches	
58	betaTub60D	1	axon bundles split apart	
59	OS9	1	beaded; swollen axons	
60	CG18557	1	too many neurite branches	
61	klar	1	too many neurite branches	
62	CG34367	1	cell fragments present	
63	CG13594	1	axon bundles split apart	
64	kl-3 (retired record)	1	sheet-like cell extensions	
65	CG3630	1	cell fragments present	
66	CG7443	1	too many neurite branches	
67	COX7C	1	abnormal cell clusters	
68	betaTub97EF	1	sheet-like cell extensions	
69	betaTub97EF	2	axon bundles split apart	
70	CG3402	1	sheet-like cell extensions	
71	Syx1A	1	sheet-like cell extensions	
72	CG3841	1	abnormal cell clusters	
73	mago	1	reduced axon outgrowth	
74	Grx1t	1	too many neurite branches	
75	nAChRalpha5	1	too many neurite branches	
76	CG12213	1	abnormal cell clusters	abnormal cell clusters
77	TwdlQ	1	too many neurite branches	
78	CG11638	1	sheet-like cell extensions	
79	e	1	too many neurite branches	
80	Cyp6a2	1	abnormal cell clusters	
81	CG8888	1	sheet-like cell extensions	
82	Ak1	1	axon bundles split apart	
83	CG2186	1	cell fragments present	
84	Nf-YC	1	axon bundles split apart	
85	DIP1	1	fewer cells	
86	CG34348	1	axon bundles split apart	
87	CG18870	1	cell fragments present	
88	RpL15	1	axon bundles split apart	
89	cactin	1	abnormal cell clusters	
90	CG11722	1	beaded; swollen axons	
91	Polr1H	1	sheet-like cell extensions	
92	CG18420	1	axon bundles split apart	
93	Kaz1-ORFB + Kaz1-ORFA	1	too many neurite branches	
94	CG15478	1	too many neurite branches	
95	CG42390	1	too many neurite branches	
96	dyl	1	axon bundles split apart	
97	CG14478	1	sheet-like cell extensions	
98	BORCS7 + CG13430	1	beaded; swollen axons	
99	CG7546	1	beaded; swollen axons	
100	CG9372	1	cell fragments present	
101	egg	1	fewer cells	too many neurite branches
102	Flad1	1	too many neurite branches	
103	CG7900	1	too many neurite branches	
104	CG7900	2	axon bundles split apart	
105	CG14275	1	sheet-like cell extensions	
106	RpL7-like + CG34164	1	too many neurite branches	
107	RpL7-like + CG34164	2	too many neurite branches	
108	CG7044	1	axon bundles split apart	
109	CG11334	1	too many neurite branches	
